# In publication PMC7872032:
# Results are given in words; binding and its absence hold for the method and conditions named. In cells and extracts the contact can be indirect. Binding can be weak; no strength is given. Tags and fused reporters may be left off the sequences shown.
# Target: T1, Flag-Pig-IRF3 (porcine) (UniProt Q764M6)
# T1 sequence: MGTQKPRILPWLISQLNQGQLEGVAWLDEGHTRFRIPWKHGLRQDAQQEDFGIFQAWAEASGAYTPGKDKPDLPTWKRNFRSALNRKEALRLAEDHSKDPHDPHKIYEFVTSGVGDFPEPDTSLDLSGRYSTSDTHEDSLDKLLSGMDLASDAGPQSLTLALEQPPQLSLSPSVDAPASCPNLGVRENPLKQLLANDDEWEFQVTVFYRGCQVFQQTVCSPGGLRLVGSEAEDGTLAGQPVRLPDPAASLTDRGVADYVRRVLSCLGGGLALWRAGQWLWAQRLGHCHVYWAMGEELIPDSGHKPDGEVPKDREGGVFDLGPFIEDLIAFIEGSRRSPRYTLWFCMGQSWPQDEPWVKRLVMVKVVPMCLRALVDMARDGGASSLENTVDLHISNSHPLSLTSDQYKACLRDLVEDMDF
# Assay: co-IP; ST-EGFP-APPV-N^pro cells transfected with pCAGGS-Flag-Pig-IRF3 for 24 h (pCAGGS-Flag as negative control); lysis buffer 20 mM Tris-HCl, 300 mM NaCl, 2.5 mM MgCl2, 10% glycerol, 0.1% Nonidet P40; magnetic beads, 4 h at 4°C; western blot
substance,measurement,value
EGFP-APPV-N^pro (atypical porcine pestivirus (APPV)),binding,binds
